Test results published in PubChem BioAssay AID1439 (NMMLSC, 2008).
Among all 220,000 compounds or so, about 770 (0.35%) were called active. Inconclusive means that the source gave no clear call. Such entries were picked first, then a sample of the others. No stated cut-off is given here; in the data, active means binding response below about 49% or above about 150%; inconclusive means no clear call, values can overlap the other calls; inactive means in between.

Chains of the proteins cited; added tags and fusions are not shown.
UniProt P09471, whole entry, looked up: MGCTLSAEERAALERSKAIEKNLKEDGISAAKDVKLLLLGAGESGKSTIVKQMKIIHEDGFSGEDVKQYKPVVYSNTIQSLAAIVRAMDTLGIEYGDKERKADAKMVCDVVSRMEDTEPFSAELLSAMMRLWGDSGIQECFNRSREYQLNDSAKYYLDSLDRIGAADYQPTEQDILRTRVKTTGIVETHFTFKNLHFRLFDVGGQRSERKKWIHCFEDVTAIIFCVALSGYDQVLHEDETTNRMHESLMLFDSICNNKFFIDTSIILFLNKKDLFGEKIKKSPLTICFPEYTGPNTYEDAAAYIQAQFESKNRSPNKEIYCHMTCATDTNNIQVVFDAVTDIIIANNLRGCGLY

Biological target: Guanine nucleotide-binding protein G(o) subunit alpha (Homo sapiens) (UniProt P09471)
Test: RGS7-Galphao binding modulators, primary screen, biochemical, multiplexed bead flow cytometry (AID 1439);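 further: fluorescent Galphao held in activated GDP-AlF4 state binding bead-coupled RGS7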
Conditions: at 10 µM, actives lie on both sides

Structure (SMILES) | binding response (% of control)
O=C(CCn1c(=O)oc2ccccc21)NCCN1CCOCC1 | inconclusive: 97%
Cc1cc2cc(CCNC(=O)c3cccc([N+](=O)[O-])c3)c(=O)[nH]c2cc1C | active: 36.5%
CC(=O)Nc1ccc(N2C(=O)CC(Sc3nc4ccccc4s3)C2=O)cc1 (stereo unspecified) | inconclusive: 90.2%
Cc1nc(-c2ccc(Cl)cc2)sc1C1(C)CC(c2ccc(C#N)cc2)=NO1 (stereo unspecified) | inconclusive: 79.5%
O=S1(=O)NC(=NCC(c2ccco2)N2CCCCC2)c2ccccc21 (stereo unspecified) | inconclusive: 163%
COC(=O)c1cccc(C23CC4(C2)[C@H](CN(Cc2cccnc2)[C@@H]4c2ccccc2)C3c2ccc(Cl)nc2)c1 (stereo partly specified) | inconclusive: 116%
COc1ccc(Cl)cc1C(=O)NNC(=O)CSc1nnnn1C | inactive: 102%
Cc1nn(-c2ccccc2)c(N)c1C1(O)C(=O)Nc2ccccc21 (stereo unspecified) | inconclusive: 102%
O=C(NC1=NCCS1)c1cc(-c2cccnc2)nc2ccccc12 | inconclusive: 123%
COCCN1C(=O)N[C@@H](CCc2ccccc2)[C@H](C(C)=O)[C@H]1C | inconclusive: 93.8%
CC(C)[C@H]1C=C(C(=O)O)O[C@@H](OCCCCO)C1 | inconclusive: 88.7%
COc1ccccc1Nc1cc(N2CCOCC2)c2nonc2c1[N+](=O)[O-] | inconclusive: 95.2%
CCN(c1ccccc1)S(=O)(=O)c1cc(C(=O)OC(C)C(=O)Nc2ccc3c(c2)OCCO3)ccc1C (stereo unspecified) | inconclusive: 71.1%
C=C(C)COc1ccc(-c2nc(N)ncc2-c2ccccc2OC)c(O)c1 | inconclusive: -309%
CCOC(=O)c1c([N+](=O)[O-])c(C)[nH]c(=O)c1C#N | inconclusive: 50%
CC1(C)CC(=O)C=C(NCc2cccc(C(F)(F)F)c2)C1 | inconclusive: 76.2%
C=CCNC(=O)Cc1c(OC)ccc2cc(Br)ccc12 | inconclusive: 114%
CCc1cc2c(SCc3nc4sc(C(C)=O)c(C)c4c(=O)[nH]3)ncnc2s1 | inconclusive: 121%
CCCCn1c(=NC(=O)c2ccco2)c(C(=O)OCC)cc2c(=O)n3cccc(C)c3nc21 | inconclusive: -22.3%

Structure (SMILES) | binding response (% of control)
CCCCCN1C=CC=C/C1=C\C=C(C#N)C#N | inconclusive: -61.5%
COc1ccc(CN2CCN(C(=O)c3cc(-c4cccnc4)nc4ccc(Cl)cc34)CC2)c(OC)c1OC | inconclusive: 100%
COCC(O)CSc1c([N+](=O)[O-])nc(C)n1Cc1ccc(OC)c([N+](=O)[O-])c1 (stereo unspecified) | inactive: 98.8%
Cc1cc(NC(=O)CSc2nc3ccccc3[nH]2)n(-c2ccccc2)n1 | inconclusive: -9.78%
Cn1c(=O)n(C)c2cc(S(=O)(=O)NCC(=O)O)ccc21 | inconclusive: 89.4%
CCc1cccc(CC)c1NC(=O)COC(=O)CC1c2ccccc2CCN1S(=O)(=O)c1ccccc1 (stereo unspecified) | inactive: 128%
O=C(O)c1cccc(Cn2c(Cl)c(/C=N/NC(=O)c3cc4ccccc4cc3O)sc2=O)c1 | inconclusive: 120%
O=C(O)CN1C(=O)c2ccc(Oc3ccc4c(c3)C(=O)N(CC(=O)O)C4=O)cc2C1=O | inconclusive: 108%
CCCN(c1ccc(C)cc1)c1nc(=O)c2cccnc2s1 | inconclusive: 105%
CCN(CC)c1ccc(NC(=O)c2ccc(=O)[nH]c2)cc1S(=O)(=O)Nc1ccccc1OC | inactive: 116%
CC1(C)CC(NC(=S)NCc2ccc3c(c2)OCO3)CC(C)(C)N1 | inconclusive: 86.2%
CCC(=O)NNc1nc2c(C)c(C)ccc2s1 | inactive: 96.6%
O=S1(=O)CCN(Cc2ccc(F)cc2)CC1 | inconclusive: 92.1%
O=C(CCl)N=c1sccn1Cc1ccccc1Cl | inconclusive: 94.8%
Cn1c2ccccc2c2cnn(CC(=O)Nc3ccccc3Br)c(=O)c21 | inconclusive: 209%
CCCn1c(C(C)NC(=O)c2ccccc2)nc2ccccc21 (stereo unspecified) | inactive: 97.9%
CC(C)(C)c1nc(Sc2ncccc2[N+](=O)[O-])n[nH]1 | inconclusive: 190%
COc1ccc(CCC(=O)OCC(=O)Nc2ccc(C)c(S(=O)(=O)N(C)C)c2)cc1 | active: 45.2%
COC(=O)/C(C#N)=C1/C=Cc2ccccc2N1 | inactive: 104%

An excerpt from above in order of length of the SMILES, high to low:
Structure (SMILES) | binding response (% of control)
COCC(O)CSc1c([N+](=O)[O-])nc(C)n1Cc1ccc(OC)c([N+](=O)[O-])c1 (stereo unspecified) | inactive: 98.8%
COc1ccc(CCC(=O)OCC(=O)Nc2ccc(C)c(S(=O)(=O)N(C)C)c2)cc1 | active: 45.2%
Cc1cc(NC(=O)CSc2nc3ccccc3[nH]2)n(-c2ccccc2)n1 | inconclusive: -9.78%
CCCCCN1C=CC=C/C1=C\C=C(C#N)C#N | inconclusive: -61.5%

Next part

Structure (SMILES) | binding response (% of control)
COCCCC1CCN(Cc2nc(-c3ccccc3)no2)CC1 | inactive: 101%
COc1ccccc1NC(=O)N1CCCC1C(=O)NC12CC3CC(CC(C3)C1)C2 (stereo unspecified) | inactive: 105%
CC(=O)Nc1ccc(/C=C(\C#N)C(N)=O)cc1 | inconclusive: 70%
CS(=O)(=O)N(CCc1ccccc1)CC(=O)NCc1ccc2c(c1)OCO2 | active: 12.8%
C[C@H](N)c1nnc(SCC(N)=O)o1 | inconclusive: 103%
Cc1ccccc1C1c2[nH]c3ccccc3c2CCN1Cc1cccn1-c1ncccn1 (stereo unspecified) | inconclusive: 98.4%
C/C(=N\NC(=O)Cc1cccn1C)c1cccc2ccccc12 | inactive: 76.5%
C=CCN(C(=O)c1ccccn1)C(C(=O)NCc1ccccc1)c1ccccc1F (stereo unspecified) | inactive: 93.8%
Cc1ccccc1NC(=O)NCC1CCN(C(=O)OC(C)(C)C)CC1 | inconclusive: 97.6%
c1ccc(-c2[nH]ncc2CN2CCc3ccccc3C2)cc1 | inconclusive: 108%
CC(=O)c1ccc(NC(=O)C2CCCN(S(=O)(=O)c3c(C)[nH]c(=O)[nH]c3=O)C2)cc1 (stereo unspecified) | inconclusive: 100%
O=C(CN1C(=O)NC2(CCCCCC2)C1=O)NC1CCCCCCC1 | inconclusive: 108%
CCOC(=O)CC1C(=O)NCCN1c1nc2ccc(C)cn2c(=O)c1/C=C1\SC(=S)N(CC(C)C)C1=O (stereo unspecified) | inconclusive: 86%
O=C(CCNc1ccc(Cc2ccncc2)cc1)c1ccc([N+](=O)[O-])cc1 | inconclusive: 83%
Cc1cc(C)c(C(=O)OCCNC(=O)c2cccnc2)cc1C | active: 184% [activator]
O=C(O)c1ccccc1C(=O)c1ccc(N2CCCC2)c([N+](=O)[O-])c1 | inconclusive: 89.5%
COc1ccc(C2=NN(C(=O)c3cccs3)C(c3ccccc3OC)C2)cc1OC (stereo unspecified) | inconclusive: 94%
CC(NS(=O)(=O)c1ccc(Cl)cc1)C(=O)NCCC1=CCCCC1 (stereo unspecified) | inactive: 103%
